According to US20210023171A1 (published 2021):
No constants are given. Whether binding was seen depends on the method and setting. Some entries that bind do so weakly or less than the wild type.

Sequences of proteins named here, by UniProt entry; tags and fusion partners are left off. A change or cut given only in a name is not applied to a line headed by its entry.
UniProt P06756: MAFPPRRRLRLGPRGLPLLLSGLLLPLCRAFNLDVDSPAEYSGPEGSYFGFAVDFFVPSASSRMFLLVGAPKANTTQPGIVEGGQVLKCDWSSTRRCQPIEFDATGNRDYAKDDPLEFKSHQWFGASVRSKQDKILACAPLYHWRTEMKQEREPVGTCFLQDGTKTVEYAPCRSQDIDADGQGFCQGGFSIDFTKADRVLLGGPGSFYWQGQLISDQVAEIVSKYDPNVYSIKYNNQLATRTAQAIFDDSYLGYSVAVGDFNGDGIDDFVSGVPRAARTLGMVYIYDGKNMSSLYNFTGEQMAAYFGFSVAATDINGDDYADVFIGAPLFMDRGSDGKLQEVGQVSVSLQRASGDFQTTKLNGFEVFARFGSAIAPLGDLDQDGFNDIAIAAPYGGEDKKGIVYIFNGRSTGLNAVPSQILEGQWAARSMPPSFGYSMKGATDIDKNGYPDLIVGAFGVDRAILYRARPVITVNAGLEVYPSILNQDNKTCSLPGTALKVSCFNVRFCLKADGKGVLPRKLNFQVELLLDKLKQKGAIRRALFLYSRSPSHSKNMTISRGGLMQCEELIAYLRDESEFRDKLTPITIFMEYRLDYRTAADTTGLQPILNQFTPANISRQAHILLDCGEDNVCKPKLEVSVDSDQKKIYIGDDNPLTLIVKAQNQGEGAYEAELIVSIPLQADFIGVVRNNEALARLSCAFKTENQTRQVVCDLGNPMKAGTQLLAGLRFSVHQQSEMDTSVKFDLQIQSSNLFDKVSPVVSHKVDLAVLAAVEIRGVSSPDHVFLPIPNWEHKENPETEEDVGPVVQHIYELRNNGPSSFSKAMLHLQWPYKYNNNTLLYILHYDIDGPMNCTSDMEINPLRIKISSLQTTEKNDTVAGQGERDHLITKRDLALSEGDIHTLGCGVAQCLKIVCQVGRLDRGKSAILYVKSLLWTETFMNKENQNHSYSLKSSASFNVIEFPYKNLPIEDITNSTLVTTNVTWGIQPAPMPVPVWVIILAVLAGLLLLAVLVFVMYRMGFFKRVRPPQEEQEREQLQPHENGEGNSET
UniProt P08648: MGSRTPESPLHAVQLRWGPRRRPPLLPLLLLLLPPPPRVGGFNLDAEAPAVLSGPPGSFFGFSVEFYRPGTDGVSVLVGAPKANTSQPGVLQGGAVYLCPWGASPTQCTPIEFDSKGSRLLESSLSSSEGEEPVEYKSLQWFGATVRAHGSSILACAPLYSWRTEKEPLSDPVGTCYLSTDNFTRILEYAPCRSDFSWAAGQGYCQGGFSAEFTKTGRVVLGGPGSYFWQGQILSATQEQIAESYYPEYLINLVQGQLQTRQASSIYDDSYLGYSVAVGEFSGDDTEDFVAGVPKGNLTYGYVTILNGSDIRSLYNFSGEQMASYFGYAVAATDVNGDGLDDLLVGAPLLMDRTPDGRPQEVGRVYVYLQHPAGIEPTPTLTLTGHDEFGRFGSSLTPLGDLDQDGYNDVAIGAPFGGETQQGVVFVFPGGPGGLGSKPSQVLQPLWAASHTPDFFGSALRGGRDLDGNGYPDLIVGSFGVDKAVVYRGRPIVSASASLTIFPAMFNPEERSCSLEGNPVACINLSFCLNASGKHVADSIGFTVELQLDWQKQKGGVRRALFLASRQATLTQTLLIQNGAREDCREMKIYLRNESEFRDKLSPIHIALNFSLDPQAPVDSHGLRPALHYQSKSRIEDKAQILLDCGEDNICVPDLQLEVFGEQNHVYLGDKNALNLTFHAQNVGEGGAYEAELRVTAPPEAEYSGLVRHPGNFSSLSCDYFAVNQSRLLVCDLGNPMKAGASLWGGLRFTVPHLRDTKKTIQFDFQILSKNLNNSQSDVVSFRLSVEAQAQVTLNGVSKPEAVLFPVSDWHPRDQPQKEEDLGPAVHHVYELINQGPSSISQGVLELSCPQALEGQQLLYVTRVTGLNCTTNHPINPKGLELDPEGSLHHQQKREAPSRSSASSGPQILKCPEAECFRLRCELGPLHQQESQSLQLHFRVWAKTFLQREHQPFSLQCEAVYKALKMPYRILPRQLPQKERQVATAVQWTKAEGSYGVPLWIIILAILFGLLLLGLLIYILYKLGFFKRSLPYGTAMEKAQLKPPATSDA

B1: Miniprotein 2.5D (synthetic, soluble) (peptide)
chain: GCPQGRGDWAPTSCSQDSDCRAGCVCGPNGFCG
notes: also called knottin peptide 2.5D; RGD-miniprotein 2.5D
B2: Miniprotein 2.5F (synthetic, soluble) (peptide)
chain: GCPRPRGDNPPLTCSQDSDCLAGCVCGPNGFCG
notes: also called knottin peptide 2.5F; RGD-miniprotein 2.5F

Columns and labels:
[1] = biological target: αvβ5 integrin (soluble / detergent-solubilized) (UniProt P06756); experiment: competition with ^125I-echistatin on plate-coated integrin
[2] = biological target: α5β1 integrin (detergent-solubilized) (UniProt P08648); experiment: as above

Binder | binding [1] | binding [2]
B1 | binds | 
GCVTGRGDSPASSCSQDSDCLAGCVCGPNGFCG (also called FN-RGD2; RGD-EETI #3) [Loop-grafted FN-RGD (synthetic, soluble)] | binds | 
GCTIGRGDWAPSECSQDSDCLAGCVCGPNGFCG (also called RGD-miniprotein 1.5B) [Miniprotein 1.5B (synthetic, soluble)] | binds | 
B2 | binds | binds
